Structures can show the parent of a compound that is named as a salt. Over roughly 1,000 compounds, “cFRET/donor change relative to DMSO, normalised to beta-lapachone positive control (supercomplex I-IV assembly)” has its median near 0.18; the lowest 2% begin near -1. This is one part of the list.

The subject of this assay is C2C12 (NDUFB8-AcGFP / COX8A-DsRed-Monomer FRET reporter). Description: cFRET/donor change relative to DMSO, normalised to beta-lapachone positive control (supercomplex I-IV assembly) (fraction of beta-lapachone effect); higher = more respiratory supercomplex assembly. The settings on record: 40 µM; 24 h. As for the experimental part:
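Cells were treated with 40 uM compound for 24 h and imaged on an IN Cell Analyzer 6000. Corrected FRET was divided by donor signal (cFRET/donor) and measured in two replicate experiments. The score is (mean cFRET/donor of compound - mean DMSO) / (mean beta-lapachone 40 uM - mean DMSO). Compounds flagged for prominent cell death, abnormal morphology or decreased cell number were excluded.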
With `C=CC(N)CCC(=O)O` (racemic) [(±)-gamma-Vinyl GABA], the cFRET/donor change is -0.109. In the case of `O=C(O)C1CCNCC1` [Isonipecotic acid] it was 0.0285; in that of `CC1(C)CCC(NC(=O)[C@@H](N)CCC(=O)O)CC1`, 0.318; in that of `CC(=Cc1ccc(C(=O)O)cc1)c1ccc2c(c1)C(C)(C)CCC2(C)C`, 0.422. The molecule `O=C(O)CCCCCCCC(=O)O` [Azelaic acid] returned a cFRET/donor change of 0.358.

Take `COC(=O)Nc1nc2cc(C(=O)c3cccs3)ccc2[nH]1` [Nocodazole]: the cFRET/donor change is -0.0123. As for `CCN[C@H]1CN(CCCOC)S(=O)(=O)c2sc(S(N)(=O)=O)cc21` [Brinzolamide], the figure is -0.0238; as for `CN(C)CCC(c1ccc(Cl)cc1)c1ccccn1` (racemic) [(±)-Chlorpheniramine maleate], 0.264.

Molecule `CC(C)c1c(C(=O)Nc2ccccc2)c(-c2ccccc2)c(-c2ccc(F)cc2)n1CC[C@@H](O)C[C@@H](O)CC(=O)O` [Atorvastatin calcium salt trihydrate] yielded a cFRET/donor change of -0.0539. In the case of `COc1ccc(-c2cc(=O)c3c(O)c(OC)c(OC)cc3o2)cc1O` [Eupatorin] it was 0.395.

`CC[N+](C)(C)c1cccc(O)c1` [Edrophonium chloride] showed a cFRET/donor change of 0.32. `NCCc1c[nH]cn1` [Histamine dihydrochloride]: the cFRET/donor change is -0.0794. As for `Cc1cn[nH]c1` [4-Methylpyrazole hydrochloride], the figure is -0.121; as for `CC(C)(C=O)Cc1cc(C(C)(C)C)c(O)c(C(C)(C)C)c1`, 0.29. For the molecule `CN1CCC(=C2c3ccccc3C=Cc3ccccc32)CC1` [Cyproheptadine hydrochloride], the cFRET/donor change is 0.46. `CC(C)(C)NCC(O)COc1cccc2[nH]c(=O)[nH]c12` (racemic) showed a cFRET/donor change of 0.178.

Take `NNCCc1ccccc1` [Phenelzine sulfate]: the cFRET/donor change was 0.486. `NC1(C(=O)O)CCCCC1` [1-Amino-1-cyclohexanecarboxylic acid hydrochloride] registered a cFRET/donor change of 0.0615.

`NCCC[C@](N)(C(=O)O)C(F)F` (racemic) [DL-alpha-Difluoromethylornithine hydrochloride] came in with a cFRET/donor change of 0.232. In the case of `N=C(NC(=O)c1nc(Cl)c(N)nc1N)Nc1ccccc1` [Phenamil methanesulfonate] it was 0.275; in that of `C#CC(N)CCC(=O)O` (stereo not given) [gamma-Acetylinic GABA], 0.24; in that of `CC(N/C(=N\C#N)Nc1ccncc1)C(C)(C)C` (stereo not given) [Pinacidil], 0.149. Regarding `O=c1cc(-c2ccccc2)oc2c(O)c(O)ccc12` [7,8-Dihydroxyflavone hydrate], the cFRET/donor change was -0.0745. For the molecule `CCN(CC)CCOC(=O)C1(C2CCCCC2)CCCCC1` [Dicyclomine hydrochloride], the cFRET/donor change was 0.39. In turn, `Oc1cc(O)c2c(c1)O[C@H](c1ccc(O)c(O)c1)[C@@H](O)C2` [(+)-Catechin Hydrate] returned a cFRET/donor change of 0.289.

The values are drawn from the supplement of paper PMC9877034.
